Test results reported in publication PMC5829263, “Homoarginine and inhibition of human arginase activity: kinetic characterization and biological relevance” (Scientific Reports, 2018).

Test: Plasma concentrations in healthy older adults, UPLC-MS
Assay type: in vivo, human
Details: healthy older adults >65 years, endogenous level

Row | SMILES | Mean baseline plasma concentration [µmol/L]
1 | N=C(N)NCCC[C@H](N)C(=O)O [ARG, arginine] | 305 ± 44
2 | N=C(N)NCCCC[C@H](N)C(=O)O [HOMOARG, homoarginine] | 2.36 ± 0.76
